From article PMC6925144, “A prospective compound screening contest identified broader inhibitors for Sirtuin 1” (Scientific Reports, 2019)
Over roughly 3,200 compounds, “TSA(with NAD+) / Primary screening (TSA) / delta Tm (K)” has its median near -0.04; the highest 2% begin near 0.37. Some of the results follow. Peptide text beside a SMILES is read from it.

Sequences of proteins named here, by UniProt entry; tags and fusion partners are left off. Residues count along the entry.
UniProt Q96EB6, 2-747 limits assumed: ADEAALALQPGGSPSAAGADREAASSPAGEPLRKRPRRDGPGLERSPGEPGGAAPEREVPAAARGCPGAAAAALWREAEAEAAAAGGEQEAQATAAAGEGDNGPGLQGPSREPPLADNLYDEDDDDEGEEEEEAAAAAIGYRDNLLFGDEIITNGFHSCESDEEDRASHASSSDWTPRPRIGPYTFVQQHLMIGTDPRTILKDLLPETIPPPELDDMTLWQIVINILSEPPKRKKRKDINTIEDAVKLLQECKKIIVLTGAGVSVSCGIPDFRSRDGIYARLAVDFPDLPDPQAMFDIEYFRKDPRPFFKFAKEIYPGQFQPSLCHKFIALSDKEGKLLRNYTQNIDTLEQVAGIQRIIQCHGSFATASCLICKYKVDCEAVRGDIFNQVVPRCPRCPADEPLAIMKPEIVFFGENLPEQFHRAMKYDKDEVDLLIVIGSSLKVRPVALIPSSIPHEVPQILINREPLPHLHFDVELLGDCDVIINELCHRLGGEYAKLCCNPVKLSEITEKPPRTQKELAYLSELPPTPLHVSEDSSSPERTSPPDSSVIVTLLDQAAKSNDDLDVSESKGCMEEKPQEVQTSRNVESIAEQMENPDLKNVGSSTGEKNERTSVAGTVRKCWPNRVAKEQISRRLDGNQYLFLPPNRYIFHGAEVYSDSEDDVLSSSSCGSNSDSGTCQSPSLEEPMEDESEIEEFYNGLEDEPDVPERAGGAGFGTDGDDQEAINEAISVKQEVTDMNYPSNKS

Each molecule was assayed against NAD-dependent deacetylase Sirtuin 1 (human, UniProt Q96EB6) (assay: primary screen, delta tm). Conditions: 10 µM.
Design: single well (n = 1, as 'the same TSA')
Method: A total of 3,192 compounds extracted from the proposed lists were first screened by thermal shift assay (TSA), which determined a melting temperature shift (ΔTm) of Sirtuin 1 upon the addition of a test compound at a concentration of 10 µM (n = 1) with primary hit criteria of ΔTm > 0.45 K or ΔTm < −1.5 K. Primary hits (48 compounds) were retested in the same assay at three concentrations (5, 10, 20 µM, n = 4) for hit confirmation and for dose-dependency check. Secondary hits (41 compounds) were checked their selectivity for Sirtuin 1 based on counterscreening on unrelated protein targets (bovine carbonic anhydrase (CA) and recombinant SH2 domain of hABL1 kinase (ABL1)) at three different concentrations (5, 10, 20 µM, n = 4), which yielded 38 hit compounds, hereafter referred to as TSA hits. The TSA screening above was conducted in the absence of NAD+. As noted, the structure of Sirtuin 1 is different in the presence of NAD+ and substrate. The chemical profile of TSA hits found from the different conditions could be different. […] As a result, 39 TSA hits were found.

Row | Compound | TSA(with NAD+) / Primary screening (TSA) / delta Tm (K)
1 | COc1ccc(CN(C(=O)COC(=O)c2ccc(C(N)=O)cc2)C2CC2)cc1 | 0.03 K
2 | O=C(COC(=O)CN1C(=O)C2CCCCC2C1=O)Nc1cc(C(F)(F)F)ccc1Cl (centres unmarked) | 0.05 K
3 | O=C1CC(Cc2ccccc2)C(=O)N1 (centres unmarked) | -0.13 K
4 | CC(=O)NCC(=O)NCC(=O)N(C)C (Ac-Gly-Gly-NMe2) | -0.14 K
5 | CN(c1cccc(Cl)c1)S(=O)(=O)c1cccc(C(=O)Nc2cccc(C#N)c2)c1 | 0.45 K
6 | CC(Oc1ccc2[nH]c3ccccc3c(=O)c2c1)C(=O)NC(=O)NC12CC3CC(CC(C3)C1)C2 (centres unmarked) | 0.29 K
7 | CN(C(=O)Cc1cccc2ccccc12)C1C2CC3CC(C2)CC1C3 (centres unmarked) | -0.28 K
8 | Cc1ccc(N(C)S(=O)(=O)c2cccc(C(=O)Nc3ccc4c(c3)C(=O)N(C)C4=O)c2)cc1 | 0.89 K
9 | Cc1cc(C)c(NCc2cc(=O)n3ccsc3n2)c(Cl)c1 | -0.13 K
10 | NC(=O)c1ccc(NC(=O)c2sccc2S(=O)(=O)N2CCCCC2)cc1 | -0.23 K
11 | COc1cccc(-c2nnc(SC3CCCCC3=O)n2-c2ccccc2)c1 (centres unmarked) | -0.03 K
12 | C=CCOc1ccc(C(=O)C2=C(O)C(=O)N(CCCN3CCOCC3)C2c2cccs2)cc1 (centres unmarked) | -0.09 K
13 | Cc1cccc(Oc2ccc(NC(=O)c3cncc(Br)c3)cc2)c1 | 0.07 K
14 | OCCCNc1ccc2nnc(C(F)(F)F)n2n1 | -0.09 K
15 | Cc1nc2c(cnn2-c2ccc(F)cc2)c(=O)[nH]1 | -0.06 K
16 | NC(=O)C1CCN(c2ncnc3cc(-c4ccc(Cl)cc4)sc23)C1 (centres unmarked) | -0.09 K
17 | Cc1ccc2c(COC(=O)C(CCS(C)(=O)=O)NC(=O)c3ccccc3)cc(=O)oc2c1 (centres unmarked) | -0.13 K
18 | O=C(CCc1nc2ccccc2o1)N1CCN(C(c2ccc(F)cc2)c2ccc(F)cc2)CC1 | -0.01 K
19 | O=C1NC(=S)NC(=O)C1=Cc1ccc(-c2ccc(SC(F)F)cc2)o1 | -0.43 K
20 | O=C1NC2(CCOc3ccccc32)C(=O)N1Cc1cccc2ccccc12 (centres unmarked) | -0.11 K
21 | CN(c1ccccc1C(N)=O)S(=O)(=O)c1cccc(C#N)c1 | -0.03 K
22 | Cc1cc(C(=O)Nc2ccc3c(c2)OC2(CCCC2)O3)c2ccccc2n1 | -0.01 K
23 | Cc1ccc(CCC(=O)Nc2cc(C(N)=O)ccc2N2CCCCC2)cc1Cl | 0.06 K

Copied from the list.
O=C1CC(Cc2ccccc2)C(=O)N1 (centres unmarked) | TSA(with NAD+) / Primary screening (TSA) / delta Tm (K): -0.13 K
C=CCOc1ccc(C(=O)C2=C(O)C(=O)N(CCCN3CCOCC3)C2c2cccs2)cc1 (centres unmarked) | TSA(with NAD+) / Primary screening (TSA) / delta Tm (K): -0.09 K
O=C1NC(=S)NC(=O)C1=Cc1ccc(-c2ccc(SC(F)F)cc2)o1 | TSA(with NAD+) / Primary screening (TSA) / delta Tm (K): -0.43 K
COc1ccc(CN(C(=O)COC(=O)c2ccc(C(N)=O)cc2)C2CC2)cc1 | TSA(with NAD+) / Primary screening (TSA) / delta Tm (K): 0.03 K
Cc1nc2c(cnn2-c2ccc(F)cc2)c(=O)[nH]1 | TSA(with NAD+) / Primary screening (TSA) / delta Tm (K): -0.06 K

Carrying on:

Row | Compound | TSA(with NAD+) / Primary screening (TSA) / delta Tm (K)
24 | COc1ccc(N(C)S(=O)(=O)c2cccc(C(=O)Nc3ccc(Br)cc3)c2)cc1 | 1.36 K
25 | Cc1cc(C(=O)COC(=O)C23CC4CC(CC(C4)C2)C3)c(C)n1Cc1ccc2c(c1)OCO2 | -0.11 K
26 | CNS(=O)(=O)NCC(=O)O | -0.03 K
27 | CCCC(O)CN (centres unmarked) | -0.15 K
28 | O=C(Nc1ccc(N2CCN(Cc3ccccc3)CC2)cc1)c1oc2ccccc2c1COc1ccccc1 | 0.09 K
29 | CC(=O)Nc1ccc(S(=O)(=O)N(C)CC(=O)Nc2ccc(C34CC5CC(CC(C5)C3)C4)cc2)cc1 | 0.18 K
30 | NC(=O)C1CCCC1Nc1nc(C2CC2)ns1 (centres unmarked) | 0.03 K
31 | COc1ccc(OCCC(=O)Nc2c(C(N)=O)n[nH]c2C)cc1 | 0.05 K
32 | CN(Cc1ccc(Cl)s1)c1cc(=O)n2ccccc2n1 | -0.18 K
33 | Cc1c(CCC#N)c(Cl)n2c(nc3ccccc32)c1C#N | -0.03 K
34 | NCCCCS(=O)(=O)O | 0.01 K
35 | Cn1ncc2c(=O)[nH]c(N3CCC(c4cc5ccccc5[nH]4)CC3)nc21 | -0.23 K
36 | COc1ccc2nc(C)cc(N3CCN(S(=O)(=O)/C=C/c4ccccc4)CC3)c2c1 | -0.02 K
37 | Cc1ccc(C(=O)CSc2nc3ccsc3c(=O)n2C)s1 | -0.01 K
38 | CC(C#N)(NC(=O)COC(=O)c1cc(-c2ccc(O)cc2)nc2ccccc12)C1CC1 (centres unmarked) | 0.16 K
39 | O=C(COC(=O)CNC(=O)C12CC3CC(CC(C3)C1)C2)Nc1ccccc1Cc1ccccc1 | 0.08 K
40 | c1ccc2sc(-c3nc4c5ccccc5ncn4n3)cc2c1 | 0.01 K
41 | COc1ccc(C(=O)OC(C)C(=O)Nc2ccc(C(N)=O)cc2)c(OC)c1 (centres unmarked) | -0.01 K
42 | Cc1ccc(C(=O)CCC(=O)Nc2cc(C(N)=O)ccc2N2CCCC2)cc1 | -0.03 K
43 | Cc1nc(CSc2nncs2)oc1-c1ccc(Cl)cc1 | -0.06 K
44 | C=C(C)COCCN | -0.23 K
45 | CCCOc1ccc(C(=O)C2=C(O)C(=O)N(CCCN3CCOCC3)C2c2cccc(OC)c2)cc1 (centres unmarked) | -0.06 K
46 | COc1ccc(C(=O)C2=C(O)C(=O)N(CCCN3CCOCC3)C2c2ccc(N(C)C)cc2)cc1 (centres unmarked) | -0.13 K

Row | Compound | TSA(with NAD+) / Primary screening (TSA) / delta Tm (K)
47 | CCCCOc1cc(C2NC(N)=Nc3nc4ccccc4n32)ccc1OC (centres unmarked) | -0.22 K
48 | Cc1cncc(CCCN2CCN(c3ccc(C#N)cc3F)CC2)c1 | 0.09 K
49 | O=c1[nH]cnc2c1cnn2-c1cccc(Cl)c1 | -0.13 K
50 | CCOC(=O)c1c(NC(=O)C(C)OC(=O)CNC(=O)c2cc(C)cc(C)c2)sc2c1CCC(C)C2 (centres unmarked) | -0.21 K
51 | CCc1cc2c(N3CCCC(C)C3)ncnc2s1 (centres unmarked) | -0.11 K
52 | COc1cccc(C(=O)C2=C(O)C(=O)N(CCCN3CCOCC3)C2c2ccc(C)cc2)c1 (centres unmarked) | 0.02 K
53 | N#Cc1ccccc1CN1CCC(OC(=O)C2=COCC2)CC1 | -0.03 K
54 | CCc1nn2c(=O)cc(CN3CCCc4ccccc43)nc2s1 | -0.11 K
55 | COc1ccc(N(C)S(=O)(=O)c2cccc(C(=O)Nc3sccc3C#N)c2)cc1 | 0.28 K
56 | Cc1ccc2[nH]c(C(=O)O)cc2c1 | -0.04 K
57 | Cc1ccc2c(c1)CCCN2C(=O)CCn1ncc(=O)c2ccccc21 | -0.06 K
58 | O=C(OCc1ccc(COC(=O)c2ccncc2)cc1)c1ccncc1 | -0.12 K
59 | COc1ccc(OCC(=O)NCC2(C)CC(NC(=O)COc3ccc(OC)cc3)CC(C)(C)C2)cc1 (centres unmarked) | -0.18 K
60 | O=c1[nH]c(CN(Cc2ccco2)C2CCCC2)nc2c1oc1ccccc12 | 0.06 K
61 | O=c1[nH]cnc2c1nnn2-c1ccccc1 | -0.18 K
62 | Clc1ccc2c(N3CCN(Cc4ccc5c(c4)CCO5)CC3)ncnc2c1 | -0.08 K
63 | CCOC(=O)c1ncn(C2CCN(c3ncnc4c(F)cccc34)CC2)c1N | -0.01 K
64 | CCS(=O)(=O)c1ccc(N2CCC(Cc3cccnc3)CC2)cc1 | -0.09 K
65 | Cc1ccc2[nH]cc(C(=O)C(F)(F)F)c2c1 | -0.02 K
66 | CCCNC(=O)CN1CCN(c2c(C)cnc3ccccc23)CC1 | -0.02 K
67 | CN(CC12CC3CC(CC(C3)C1)C2)C(=O)c1cc2ccccc2oc1=O | -0.16 K
68 | Cc1ccc(-c2csc3ncn(CC(=O)NCC(=O)Nc4cccc(C)c4C)c(=O)c23)s1 | -0.02 K
69 | COc1cc(CN(C)C(=O)c2cccc(NC(C)=O)c2)ccc1OCc1ccccc1 | -0.01 K

Row | Compound | TSA(with NAD+) / Primary screening (TSA) / delta Tm (K)
70 | O=C(c1sc(N2CCOCC2)nc1-c1ccccc1)c1c[nH]c2ccccc12 | 0.06 K
71 | CC(C)n1c(S)nnc1CCNC(=O)/C=C/c1ccc(Br)o1 | -0.11 K
72 | NS(=O)(=O)c1cccc(NC(=O)CSc2n[nH]c(=O)n2Cc2ccccc2)c1 | -0.11 K
73 | COc1cc(CN(C)C(=O)Cc2c(C)nc3ccccc3c2C)ccc1OCc1ccccc1 | 0.05 K
74 | Cc1nc2ncnn2c(N2CCC(C(=O)Nc3cccnc3)CC2)c1C | -0.03 K
75 | N#Cc1ccc(F)c(CNC(=O)NC2CCCCNC2=O)c1 (centres unmarked) | -0.13 K
76 | C#CCCN | -0.01 K
77 | Fc1ccc(-n2ncc3c(S)ncnc32)cc1 | -0.01 K
78 | CN(c1ccccc1)S(=O)(=O)c1cccc(C(=O)OCc2cc(=O)oc3cc(O)ccc23)c1 | 0.03 K
79 | c1ccc(-c2c3c(nc4sc5c(c24)CCCC5)-c2ccccc2CC3)cc1 | 0.06 K
80 | COc1ccc(Br)cc1/C=C1/COc2ccccc2C1=O | -0.23 K
81 | CC(=O)Nc1ccc(NC(=O)c2cccc(C(N)=O)c2)cc1C | -0.12 K
82 | C=CCOc1cccc(C2C(C(=O)c3ccc(OC)cc3)=C(O)C(=O)N2CCCN2CCOCC2)c1 (centres unmarked) | -0.01 K
83 | CC(OC(=O)C1=COCCO1)C(=O)Nc1ccc(N2CCOCC2)cc1 (centres unmarked) | -0.06 K
84 | O=c1cc(NCc2ccccc2Cn2cccn2)nc2ccccn12 | -0.11 K
85 | Cc1ccc(F)c(/N=C/c2ccccc2O)c1 | -0.08 K
86 | CC(OC(=O)C1CCCN1C(=O)C12CC3CC(CC(C3)C1)C2)C(=O)c1c[nH]c2ccccc12 (centres unmarked) | -0.06 K
87 | Cc1ccc(N(Cc2ccccc2)C(=O)N(C)Cc2cnccn2)cc1 | -0.15 K
88 | CC(NC(=O)COC(=O)c1ccc(NS(=O)(=O)c2ccc3c(c2)OCCO3)cc1)C12CC3CC(CC(C3)C1)C2 (centres unmarked) | 0.27 K
89 | Cc1cc(F)ccc1N1CCCC(Nc2ccc3nnnn3n2)C1 (centres unmarked) | 0.68 K
90 | CC1(NC(=O)CSc2nnc(NCCc3cccs3)s2)CCS(=O)(=O)C1 (centres unmarked) | -0.09 K
91 | COc1ccc2[nH]cc(C3CCN(C(=O)c4coc(C)c4)CC3)c2c1 | 0.01 K
92 | O=C(COC(=O)c1ccc2c(c1)S(=O)(=O)c1ccccc1C2=O)Nc1ncc(Cl)cc1Cl | 0.15 K
